PubChem BioAssay AID493246 – Drosophila RNAi Screening Center – 2011
Test: 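Genes fly cells need to grow and stay alive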 (primary screen). Cells: Drosophila Kc and S2R+ cells. Reagent: long dsRNA against Drosophila genes. Read-out: 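Raw, unnormalised count of remaining cells in each well; per-plate z-scores of cell number underlie the calls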. Direction: Kc cell number and S2R+ cell number: higher = more cells remaining. Rule for the call: 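Active when the per-plate z-score of cell number is 3 or more in the direction of fewer cells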.
The screen tested about 21,000 reagents; shown is a random part of those that have a named target and a result. Of all reagents, 429 (2%) got an active call. 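Values are raw and not normalised between plates; calls rest on per-plate z-scores that were not deposited.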 No sequences are given here. The record does not give: the amount of reagent, the time to read-out.

| target | dsRNA | Kc cell number, rep 1 | Kc cell number, rep 2 | S2R+ cell number, rep 1 | S2R+ cell number, rep 2 | Call |
| --- | --- | --- | --- | --- | --- | --- |
| CG34125 | DRSC00850 | 1.53e6 | 1.53e6 | 1.05e6 | 1.21e6 | inactive |
| Rsbp15 | DRSC14176 | 1.77e6 | 1.77e6 | 1.38e6 | 1.50e6 | inactive |
| CG34292 | DRSC13807 | 1.29e6 | 1.48e6 | 1.05e6 | 1.07e6 | inactive |
| CG13887 | DRSC08357 | 1.25e6 | 1.28e6 | 1.06e6 | 1.15e6 | inactive |
| Mal-A7 | DRSC06077 | 1.76e6 | 1.72e6 | 1.41e6 | 1.54e6 | inactive |
| Amyrel | DRSC05920 | 1.41e6 | 1.56e6 | 1.19e6 | 1.15e6 | inactive |
| eIF3e | DRSC11199 | 1.23e6 | 1.25e6 | 8.91e5 | 9.74e5 | inactive |
| Lcp65Ag3 | DRSC10345 | 1.35e6 | 1.32e6 | 1.15e6 | 1.22e6 | inactive |
| CG13984 | DRSC02316 | 1.67e6 | 1.46e6 | 1.14e6 | 1.34e6 | inactive |
| CG12071 | DRSC14471 | 1.20e6 | 1.00e6 | 4.69e5 | 5.74e5 | active |
| Pgls | DRSC19769 | 1.57e6 | 1.57e6 | 1.07e6 | 1.22e6 | inactive |
| Tsf3 | DRSC06849 | 1.31e6 | 1.33e6 | 1.14e6 | 1.22e6 | inactive |
| exp | DRSC06313 | 1.45e6 | 1.52e6 | 9.42e5 | 1.08e6 | inactive |
| CG9029 | DRSC03129 | 1.60e6 | 1.26e6 | 1.10e6 | 1.23e6 | inactive |
| Gr97a | DRSC13802 | 1.32e6 | 1.48e6 | 1.05e6 | 1.10e6 | inactive |
| CG10950 | DRSC06020 | 1.47e6 | 1.56e6 | 1.14e6 | 1.18e6 | inactive |
| CG42656 | DRSC12472 | 1.45e6 | 1.61e6 | 1.16e6 | 1.33e6 | inactive |
| nompB | DRSC03701 | 1.44e6 | 1.53e6 | 1.17e6 | 3.24e5 | inactive |
| nompB | DRSC03731 | 1.58e6 | 1.59e6 | 1.26e6 | 3.16e5 | inactive |
| JTBR | DRSC08667 | 1.22e6 | 1.41e6 | 1.14e6 | 1.26e6 | inactive |
| Nmnat | DRSC14644 | 1.65e6 | 1.67e6 | 9.87e5 | 1.08e6 | inactive |
| regucalcin | DRSC18908 | 1.42e6 | 1.61e6 | 1.06e6 | 1.21e6 | inactive |
| regucalcin | DRSC20366 | 1.69e6 | 1.57e6 | 1.10e6 | 1.19e6 | inactive |
| Hus1-like | DRSC12353 | 1.39e6 | 1.36e6 | 1.41e6 | 1.51e6 | inactive |

Laid out differently: results already given.
target | dsRNA | Kc cell number, rep 1 | Kc cell number, rep 2 | S2R+ cell number, rep 1 | S2R+ cell number, rep 2 | Call
Mal-A7 | DRSC06077 | 1.76e6 | 1.72e6 | 1.41e6 | 1.54e6 | inactive
Amyrel | DRSC05920 | 1.41e6 | 1.56e6 | 1.19e6 | 1.15e6 | inactive
